The source of these data is the supplement of paper PMC10849652.

By UniProt entry, the sequences of proteins in these tests, tags left out. Where a name states a change or a piece, a line headed by the entry shows the natural chain unless it says otherwise.
UniProt P30838: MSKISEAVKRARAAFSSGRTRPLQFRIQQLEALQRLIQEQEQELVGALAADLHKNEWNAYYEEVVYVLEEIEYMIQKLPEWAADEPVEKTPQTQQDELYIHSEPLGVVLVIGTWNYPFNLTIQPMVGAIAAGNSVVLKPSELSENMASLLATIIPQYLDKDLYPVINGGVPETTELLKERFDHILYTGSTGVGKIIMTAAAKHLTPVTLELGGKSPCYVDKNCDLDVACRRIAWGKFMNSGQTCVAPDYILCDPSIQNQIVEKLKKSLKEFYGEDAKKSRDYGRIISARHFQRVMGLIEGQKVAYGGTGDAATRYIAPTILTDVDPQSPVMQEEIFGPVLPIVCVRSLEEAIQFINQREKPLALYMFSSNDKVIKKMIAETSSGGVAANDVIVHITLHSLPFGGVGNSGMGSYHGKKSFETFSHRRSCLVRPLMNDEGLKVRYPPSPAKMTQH
UniProt Q92685: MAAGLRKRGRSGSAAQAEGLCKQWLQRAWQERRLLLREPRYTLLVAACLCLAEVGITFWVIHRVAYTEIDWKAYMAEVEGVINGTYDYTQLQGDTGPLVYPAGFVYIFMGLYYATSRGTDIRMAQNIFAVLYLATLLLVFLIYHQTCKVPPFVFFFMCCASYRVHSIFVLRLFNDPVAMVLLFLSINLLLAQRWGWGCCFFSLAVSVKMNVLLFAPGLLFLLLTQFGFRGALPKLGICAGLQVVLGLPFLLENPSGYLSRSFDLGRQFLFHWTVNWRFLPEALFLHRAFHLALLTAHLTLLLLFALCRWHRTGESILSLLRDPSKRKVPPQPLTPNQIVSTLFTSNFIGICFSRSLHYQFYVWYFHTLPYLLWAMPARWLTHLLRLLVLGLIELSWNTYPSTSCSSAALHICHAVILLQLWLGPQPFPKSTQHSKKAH
UniProt Q9C0C7: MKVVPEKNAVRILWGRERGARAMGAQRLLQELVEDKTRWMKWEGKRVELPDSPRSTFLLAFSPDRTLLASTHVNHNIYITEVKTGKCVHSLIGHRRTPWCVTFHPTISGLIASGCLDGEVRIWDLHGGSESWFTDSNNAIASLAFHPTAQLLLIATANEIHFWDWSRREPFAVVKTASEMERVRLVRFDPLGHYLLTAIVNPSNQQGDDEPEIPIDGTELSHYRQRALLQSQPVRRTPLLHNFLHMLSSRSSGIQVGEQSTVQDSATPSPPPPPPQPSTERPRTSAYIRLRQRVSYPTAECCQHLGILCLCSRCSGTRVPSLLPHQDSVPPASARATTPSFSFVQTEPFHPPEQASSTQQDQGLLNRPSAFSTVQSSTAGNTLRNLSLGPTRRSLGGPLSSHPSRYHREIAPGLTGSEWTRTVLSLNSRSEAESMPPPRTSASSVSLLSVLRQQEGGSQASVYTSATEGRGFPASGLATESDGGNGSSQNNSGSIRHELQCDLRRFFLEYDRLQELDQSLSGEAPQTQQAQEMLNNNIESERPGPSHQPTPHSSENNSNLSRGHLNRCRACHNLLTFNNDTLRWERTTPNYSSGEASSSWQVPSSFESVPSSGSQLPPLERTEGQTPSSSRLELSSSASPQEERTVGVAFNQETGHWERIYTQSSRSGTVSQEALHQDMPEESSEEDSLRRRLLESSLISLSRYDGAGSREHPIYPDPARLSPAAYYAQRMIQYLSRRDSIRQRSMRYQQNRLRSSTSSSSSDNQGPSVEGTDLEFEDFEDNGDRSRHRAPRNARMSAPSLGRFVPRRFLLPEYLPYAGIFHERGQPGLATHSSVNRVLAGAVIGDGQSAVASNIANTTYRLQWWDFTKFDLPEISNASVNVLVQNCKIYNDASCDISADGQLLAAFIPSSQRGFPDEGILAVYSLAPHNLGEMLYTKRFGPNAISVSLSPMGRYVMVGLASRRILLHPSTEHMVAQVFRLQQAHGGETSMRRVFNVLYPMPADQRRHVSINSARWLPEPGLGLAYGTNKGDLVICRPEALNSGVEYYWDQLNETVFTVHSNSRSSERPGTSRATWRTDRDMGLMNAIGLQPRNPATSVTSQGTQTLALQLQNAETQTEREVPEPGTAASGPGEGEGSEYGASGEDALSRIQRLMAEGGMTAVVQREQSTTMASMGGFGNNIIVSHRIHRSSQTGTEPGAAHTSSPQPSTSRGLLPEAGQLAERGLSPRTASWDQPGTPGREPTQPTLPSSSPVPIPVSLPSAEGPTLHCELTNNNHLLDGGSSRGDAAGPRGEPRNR
UniProt Q2TAA5: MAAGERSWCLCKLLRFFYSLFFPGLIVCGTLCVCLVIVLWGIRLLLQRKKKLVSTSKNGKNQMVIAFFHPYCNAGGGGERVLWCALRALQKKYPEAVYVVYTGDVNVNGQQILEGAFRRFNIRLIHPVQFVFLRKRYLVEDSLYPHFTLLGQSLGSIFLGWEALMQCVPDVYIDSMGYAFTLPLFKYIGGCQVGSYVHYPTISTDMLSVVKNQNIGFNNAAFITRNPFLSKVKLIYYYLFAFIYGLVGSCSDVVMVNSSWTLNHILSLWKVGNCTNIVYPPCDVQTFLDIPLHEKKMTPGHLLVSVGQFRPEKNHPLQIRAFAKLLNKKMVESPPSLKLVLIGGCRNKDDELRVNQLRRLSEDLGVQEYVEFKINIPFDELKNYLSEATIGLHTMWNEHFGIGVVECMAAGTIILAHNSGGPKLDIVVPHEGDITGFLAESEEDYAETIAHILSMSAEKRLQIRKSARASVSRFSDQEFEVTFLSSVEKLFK
UniProt Q8N6D5: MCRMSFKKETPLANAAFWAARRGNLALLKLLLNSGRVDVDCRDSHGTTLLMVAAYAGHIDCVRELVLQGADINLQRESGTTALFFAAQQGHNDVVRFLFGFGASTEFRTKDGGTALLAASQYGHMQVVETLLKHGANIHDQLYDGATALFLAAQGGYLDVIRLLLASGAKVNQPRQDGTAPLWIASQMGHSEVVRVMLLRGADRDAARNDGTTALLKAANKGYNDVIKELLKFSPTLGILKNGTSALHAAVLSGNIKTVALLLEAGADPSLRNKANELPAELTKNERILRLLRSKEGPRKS
UniProt Q6AI12: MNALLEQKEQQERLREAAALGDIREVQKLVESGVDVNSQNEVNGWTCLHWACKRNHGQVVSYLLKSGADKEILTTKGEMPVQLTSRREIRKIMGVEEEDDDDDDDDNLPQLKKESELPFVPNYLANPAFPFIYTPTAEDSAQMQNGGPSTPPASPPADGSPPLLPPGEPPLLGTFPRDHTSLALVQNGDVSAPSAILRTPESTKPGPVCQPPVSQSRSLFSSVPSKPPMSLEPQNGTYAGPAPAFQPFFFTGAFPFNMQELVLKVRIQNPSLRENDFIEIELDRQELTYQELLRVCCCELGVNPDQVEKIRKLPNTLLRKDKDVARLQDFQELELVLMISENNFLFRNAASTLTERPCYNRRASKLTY
UniProt Q9H8T0: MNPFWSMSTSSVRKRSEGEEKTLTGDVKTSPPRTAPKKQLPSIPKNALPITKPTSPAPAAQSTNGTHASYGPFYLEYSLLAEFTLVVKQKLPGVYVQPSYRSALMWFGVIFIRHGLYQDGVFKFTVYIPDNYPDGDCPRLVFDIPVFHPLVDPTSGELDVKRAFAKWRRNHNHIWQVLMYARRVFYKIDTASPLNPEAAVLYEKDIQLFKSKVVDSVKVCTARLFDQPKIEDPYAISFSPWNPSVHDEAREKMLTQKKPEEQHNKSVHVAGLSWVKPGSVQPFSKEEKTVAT
UniProt O00189: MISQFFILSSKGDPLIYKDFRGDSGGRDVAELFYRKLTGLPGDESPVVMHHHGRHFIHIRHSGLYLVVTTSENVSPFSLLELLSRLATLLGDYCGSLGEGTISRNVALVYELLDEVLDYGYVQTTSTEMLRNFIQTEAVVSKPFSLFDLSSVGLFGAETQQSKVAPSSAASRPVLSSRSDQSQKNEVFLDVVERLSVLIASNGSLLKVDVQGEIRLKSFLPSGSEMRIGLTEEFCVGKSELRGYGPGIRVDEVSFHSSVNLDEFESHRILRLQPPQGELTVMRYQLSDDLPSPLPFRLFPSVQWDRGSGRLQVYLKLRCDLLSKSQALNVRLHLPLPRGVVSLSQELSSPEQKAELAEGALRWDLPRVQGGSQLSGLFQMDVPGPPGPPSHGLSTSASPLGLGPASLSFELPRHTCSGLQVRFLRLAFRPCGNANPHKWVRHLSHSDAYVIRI
UniProt Q8IY63: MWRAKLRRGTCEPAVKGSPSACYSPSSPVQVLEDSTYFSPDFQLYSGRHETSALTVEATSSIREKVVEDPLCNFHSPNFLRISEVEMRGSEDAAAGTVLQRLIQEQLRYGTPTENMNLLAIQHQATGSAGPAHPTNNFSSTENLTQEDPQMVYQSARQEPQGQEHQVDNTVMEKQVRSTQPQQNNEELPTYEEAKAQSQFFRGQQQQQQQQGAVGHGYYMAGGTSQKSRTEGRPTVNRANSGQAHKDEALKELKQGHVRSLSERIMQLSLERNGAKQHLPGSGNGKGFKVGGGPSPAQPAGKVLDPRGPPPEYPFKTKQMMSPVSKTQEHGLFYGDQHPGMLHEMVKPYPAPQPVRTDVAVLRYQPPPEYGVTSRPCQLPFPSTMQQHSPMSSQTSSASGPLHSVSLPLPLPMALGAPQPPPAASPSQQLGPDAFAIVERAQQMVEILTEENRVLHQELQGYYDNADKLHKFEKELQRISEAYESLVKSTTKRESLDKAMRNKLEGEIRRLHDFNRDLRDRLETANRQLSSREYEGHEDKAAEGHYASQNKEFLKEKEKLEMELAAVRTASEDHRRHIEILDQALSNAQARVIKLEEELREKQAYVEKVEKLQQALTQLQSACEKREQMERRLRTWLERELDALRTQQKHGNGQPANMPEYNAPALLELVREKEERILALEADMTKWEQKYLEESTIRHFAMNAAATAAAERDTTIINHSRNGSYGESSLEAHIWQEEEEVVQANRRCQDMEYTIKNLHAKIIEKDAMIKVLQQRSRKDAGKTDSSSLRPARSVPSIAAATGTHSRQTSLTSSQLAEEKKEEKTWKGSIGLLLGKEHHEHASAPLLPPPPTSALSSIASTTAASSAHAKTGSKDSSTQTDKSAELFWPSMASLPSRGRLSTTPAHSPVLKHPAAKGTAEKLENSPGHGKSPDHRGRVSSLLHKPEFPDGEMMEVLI
UniProt Q86XL3: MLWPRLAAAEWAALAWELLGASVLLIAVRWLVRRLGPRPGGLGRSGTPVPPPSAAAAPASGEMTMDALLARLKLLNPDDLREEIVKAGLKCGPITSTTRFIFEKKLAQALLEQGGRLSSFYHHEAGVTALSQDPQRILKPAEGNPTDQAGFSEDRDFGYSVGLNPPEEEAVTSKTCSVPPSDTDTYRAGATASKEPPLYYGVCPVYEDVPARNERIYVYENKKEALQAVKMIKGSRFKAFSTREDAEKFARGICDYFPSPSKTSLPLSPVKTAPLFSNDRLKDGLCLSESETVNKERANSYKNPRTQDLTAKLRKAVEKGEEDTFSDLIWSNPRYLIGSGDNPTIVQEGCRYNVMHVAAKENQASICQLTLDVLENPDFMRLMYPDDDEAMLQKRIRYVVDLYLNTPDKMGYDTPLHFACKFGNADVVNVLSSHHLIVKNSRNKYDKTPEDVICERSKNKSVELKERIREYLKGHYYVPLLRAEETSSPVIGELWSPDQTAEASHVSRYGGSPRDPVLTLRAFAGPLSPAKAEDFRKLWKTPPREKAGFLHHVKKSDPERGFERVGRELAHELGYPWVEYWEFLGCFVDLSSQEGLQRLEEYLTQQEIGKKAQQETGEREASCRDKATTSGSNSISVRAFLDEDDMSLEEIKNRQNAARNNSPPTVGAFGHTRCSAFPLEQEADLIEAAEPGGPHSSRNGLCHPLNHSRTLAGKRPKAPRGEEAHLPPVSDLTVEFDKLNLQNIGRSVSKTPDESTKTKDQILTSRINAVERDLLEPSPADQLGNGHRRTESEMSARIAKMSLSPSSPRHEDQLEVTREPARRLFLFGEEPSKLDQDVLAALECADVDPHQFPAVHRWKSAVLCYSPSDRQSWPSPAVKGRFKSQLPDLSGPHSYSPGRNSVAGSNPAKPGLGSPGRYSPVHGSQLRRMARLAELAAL
UniProt Q9BV10: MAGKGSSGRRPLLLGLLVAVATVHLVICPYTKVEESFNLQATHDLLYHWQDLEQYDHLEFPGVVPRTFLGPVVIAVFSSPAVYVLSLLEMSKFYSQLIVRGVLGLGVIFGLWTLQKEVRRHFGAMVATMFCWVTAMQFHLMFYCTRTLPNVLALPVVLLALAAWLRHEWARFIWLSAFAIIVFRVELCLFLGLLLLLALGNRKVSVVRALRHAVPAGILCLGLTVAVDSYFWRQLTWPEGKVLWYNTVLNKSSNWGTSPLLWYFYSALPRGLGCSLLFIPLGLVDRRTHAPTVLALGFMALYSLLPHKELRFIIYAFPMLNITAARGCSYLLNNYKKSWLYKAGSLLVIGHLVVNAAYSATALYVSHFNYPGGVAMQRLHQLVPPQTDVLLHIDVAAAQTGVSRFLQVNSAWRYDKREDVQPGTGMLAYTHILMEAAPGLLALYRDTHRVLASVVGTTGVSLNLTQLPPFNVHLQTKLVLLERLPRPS
UniProt Q9NYG5, whole entry, looked up: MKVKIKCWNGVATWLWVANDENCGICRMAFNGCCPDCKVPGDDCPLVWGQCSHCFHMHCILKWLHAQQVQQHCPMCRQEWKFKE

The other results are listed elsewhere or left out.

Compound in one experiment: CC(C)(O)CC(=O)NCCn1ccc2ncnc(Nc3ccc(Oc4cccc(C(F)(F)F)c4)c(Cl)c3)c21
Put plainly: log2 fold change, soluble protein after heating vs DMSO (PISA); higher = thermal stabilisation; K562 lysate, 10 uM; active = over 0.2 and 3.5 SD of the protein, either way, in both replicates (recomputed). Summed up:
(§1)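 Log-two fold change in thermal stability relative to solvent controls is reported from duplicates. For each sample, crude K562 extract from dounce-homogenised pellets in PBS pH 7.4 with 1 mM MgCl2, at 1 mg/mL protein, was treated with 10 μM compound for 30 min. Aliquots heated for 3 min across 48°C-58°C were pooled, brought to 0.5% NP-40 at 4°C and cleared at 21,000xg for 90 min. The supernatant was quantified by TMTpro 16plex LC-MS/MS with channel sums equalised.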
For the target ALDH3A1 (UniProt P30838), the log2 fold change was inactive: -0.259.
On to ALG3 (UniProt Q92685), for which the log2 fold change is inactive: -0.032.
On the same count and under the same terms, the value for ANK2 (UniProt Q01484) was inactive: -0.181.

Compound in a further experiment: CC(C)C1=C2N=C(C=C(N2N=C1)NCC3=CC=CC=C3)NCCCCCCN
The description is as above. Summed up:
as §1
Consider AMBRA1 isoform 5 (UniProt Q9C0C7), for which the log2 fold change was inactive: 0.033.
Turning to ALG11 (UniProt Q2TAA5), the log2 fold change is inactive: -0.027.
ANKRD29 (UniProt Q8N6D5): the log2 fold change is inactive: 0.031.
Still for that read-out and setting: in the case of ANKRD40 (UniProt Q6AI12) it was inactive: 0.051.
As to ANAPC16 (UniProt Q96DE5), the log2 fold change is inactive: 0.028.
In the case of ANKRD44 isoform 2 (UniProt Q8N8A2), the log2 fold change was inactive: -0.026.
Still for that read-out and setting: the value for ANXA6 (UniProt E5RK69) was inactive: -0.098; that for ANGPTL4 (UniProt M0R3A2) was inactive: 0.077.
Turning to AKTIP isoform 2 (UniProt Q9H8T0), the log2 fold change is inactive: 0.161.
On the same count and under the same terms, the value for ANKHD1 isoform 2 (UniProt Q8IWZ3) was inactive: -0.124.
As for ANKHD1 (UniProt D6RHC4), the log2 fold change was inactive: 0.135.
Consider ANKRD50 (UniProt Q9ULJ7), for which the log2 fold change was inactive: -0.35.
As to AP4M1 (UniProt O00189), the log2 fold change was inactive: 0.048.
On the same count and under the same terms, the value for AMOTL1 (UniProt Q8IY63) was inactive: -0.026; that for ANKH (UniProt Q9HCJ1) was inactive: -0.117; that for ANKLE2 (UniProt Q86XL3) was inactive: -0.046.
As to AP3M2 (UniProt P53677), the log2 fold change is inactive: 0.037.
Consider ALOX12B (UniProt O75342), for which the log2 fold change is inactive: 0.026.
On to ALG12 (UniProt Q9BV10), for which the log2 fold change was inactive: -0.113.
As for AP3D1 isoform 2 (UniProt O14617), the log2 fold change was inactive: 0.09.
On the same count and under the same terms, the value for ALDH3A1 (UniProt P30838) was inactive: 0.04.
ALDOA (UniProt H3BPS8): the log2 fold change is inactive: -0.108.
For ALG3 (UniProt Q92685), the log2 fold change was inactive: -0.278.

Compound in another experiment: CC1=C(C(CC(=O)N1)C2=CC=C(C=C2)C(F)(F)F)C(=O)NC3=C(C=C4C(=C3)C=NN4)F
The experiment is described as above. Summed up:
as §1
For ALAS1 (UniProt P13196), the log2 fold change is inactive: 0.068.
Turning to AMBRA1 isoform 5 (UniProt Q9C0C7), the log2 fold change is inactive: -0.137.
For the target ALG11 (UniProt Q2TAA5), the log2 fold change was inactive: 0.182.
On the same count and under the same terms, in the case of ANKRD29 (UniProt Q8N6D5) it was inactive: -0.198; in that of ANKRD30A (UniProt Q9BXX3), inactive: 0.007; in that of ANKRD40 (UniProt Q6AI12), inactive: 0.027.
On to ANAPC16 (UniProt Q96DE5), for which the log2 fold change is inactive: 0.111.
On to ANKRD44 isoform 2 (UniProt Q8N8A2), for which the log2 fold change was inactive: 0.075.
ANXA6 (UniProt E5RK69): the log2 fold change is inactive: 0.121.
Consider ANKHD1 isoform 2 (UniProt Q8IWZ3), for which the log2 fold change is inactive: 0.067.
As for ANKRD50 (UniProt Q9ULJ7), the log2 fold change was inactive: -0.046.
With AP4M1 (UniProt O00189), the log2 fold change is inactive: -0.042.
Same read-out and setting: in the case of AMOTL1 (UniProt Q8IY63) it was inactive: 0.017; in that of ANKH (UniProt Q9HCJ1), inactive: 0.052.
Take ANKLE2 (UniProt Q86XL3): the log2 fold change is inactive: 0.042.
Still for that read-out and setting: the value for ANKRD16 (UniProt Q6P6B7) was inactive: 0.064.
Turning to ALOX12B (UniProt O75342), the log2 fold change is inactive: 0.051.
For AP3D1 isoform 2 (UniProt O14617), the log2 fold change is inactive: 0.127.
The same measure, in the same setting: in the case of ALDOA (UniProt H3BPS8) it was inactive: -0.082; in that of ANK2 (UniProt Q01484), inactive: -0.051.

Compound in a further experiment: CC1=C(C2=C(C=C1)C(=O)C3=CC=CC=C3N2CCCN)C
The description is as above. Summed up:
as §1
As to ALAS1 (UniProt P13196), the log2 fold change was inactive: 0.063.
As for AMBRA1 isoform 5 (UniProt Q9C0C7), the log2 fold change was inactive: -0.049.
Take ANKRD31 (UniProt Q8N7Z5): the log2 fold change is inactive: -0.084.
Still for that read-out and setting: in the case of ALG11 (UniProt Q2TAA5) it was inactive: -0.005; in that of ANKRD29 (UniProt Q8N6D5), inactive: -0.127.
Consider ANKRD30A (UniProt Q9BXX3), for which the log2 fold change was inactive: 0.038.
For the target ANKRD40 (UniProt Q6AI12), the log2 fold change was inactive: -0.231.
With ANAPC16 (UniProt Q96DE5), the log2 fold change is inactive: -0.05.
On to ANXA6 (UniProt E5RK69), for which the log2 fold change was inactive: -0.122.
On to AKTIP isoform 2 (UniProt Q9H8T0), for which the log2 fold change is inactive: 0.108.
The same measure, in the same setting: the value for ANKHD1 isoform 2 (UniProt Q8IWZ3) was inactive: 0.
As for ANKHD1 (UniProt D6RHC4), the log2 fold change is inactive: -0.234.
Still for that read-out and setting: in the case of AP4M1 (UniProt O00189) it was inactive: -0.042; in that of AMOTL1 (UniProt Q8IY63), inactive: -0.014.
Still for that read-out and setting: the value for ALDH9A1 (UniProt P49189) was inactive: 0.052; that for ANAPC11 (UniProt Q9NYG5) was inactive: 0.196; that for ANKLE2 (UniProt Q86XL3) was inactive: 0.037.
As to ANKRD16 (UniProt Q6P6B7), the log2 fold change was inactive: -0.084.
Same read-out and setting: the value for AP3M2 (UniProt P53677) was inactive: -0.023; that for ANKS3 (UniProt Q6ZW76) was inactive: 0.065.
For the target ALG12 (UniProt Q9BV10), the log2 fold change is inactive: -0.058.
The same measure, in the same setting: in the case of ALDH3A1 (UniProt P30838) it was active: 1.23; in that of ALG3 (UniProt Q92685), inactive: 0.014.
ANK2 (UniProt Q01484): the log2 fold change is inactive: -0.044.
